Results reported in the DeepSol protein solubility set.

Assay: soluble on expression in E. coli; label from the status in PepcDB or PDB records

| Sequence | soluble on expression in E. coli |
| --- | --- |
| MTTTSSDELPRQADDDSMKWDRIYIQKLDPEVIFTKQERIGRGSFGEVYKGIDNRTGRVVAIKIIDLEQAEDEIEDIQQEIQVLSQCDSQYVTKYFGSFLKGSKLWIIMEYLGGGSALDLTKSGKLDESHIAVILREILKGLEYLHSERKIHRDIKAANVLVSEHGDVKVADFGVAGQLTETVKKRITFVGSPFWMAPELIKQSSYDYKADIWSLGITAIELANGEPPHSDLHPMRVLFLIPKNPPPVLQGSQWSKPFKEFVEMCLNKDPENRPSASTLLKHQFIKRAKKNSILVDLIERAAEYRLRTGVSSDSDLDEDSDGGGGTSKWDYPTVRGPRVSADDDGTVRQRTDRPRAQVDRRSPSGSPGGTIVRGSPQVAAVAEQLRNSSVGSSGYGSGGNSASSQYATSSLPQSHTASSGGATTITLGSPNGSPTSSLARTQSMVSPSGQRSGSAQSWELERGNRPMSERVSSQVSPSKYNQHRTSSSNGVQGGSGGRREYINGSGSGLNGNSSNQNHSEYSDAVRQRGPGGSGGRLDYRESHVPTSSQENLNHGRMYGYGAPPPSREANNVPMPRVKGALDCSLLPAIEHLSRTRHATAALDQLRHVFRDVEDSCPGICNELIEELMQRIAVPQVSQSDLDAAIRRLTTPPS | not soluble |
| MGSDKIHHHHHHMSVNGQSSAASQASEQREPNAPVEHSGIYTGQVRHRRFGEIPHAFGYRLYMMGLDLDELSAVTSRSWLFGQRWFNPIRFNEKDYLKNEPGSLKQRIAQKVAALGGSWQTENRVVMLAQCRCLGVYFSPINFYFCYDAQQVCRYMLAEVSNTPWNQRHYYLLSLEGEMKLKKAFHVSPFMAMEMTYHWRVSPPAAKALVHIENHQEAKVFDATLALDRQGITPANLLNTWVRIPAMTVKMLLGIYWQALKLFLKRVPFIAHPDADSAS | not soluble |
| MRISLQKCSKTACSVLSKRPILSPKKPKSEGEATSFIDYRRVRCQAGNGGNGMVSFFRGYRKPFGGPDGGDGGHGGHVVFRASRSSKDLSTVHSIVRAQNGEFGRSKSCHGKSADHKEVEVPLGTVFKADGNTIFELNNENDMFIAARGGVGGRGNQFYVSNEVRKPFKAEYGGEGEELIYDVEMRVMATAGLVGFPNAGKSSLLRAISRAKPKVASYPFTTLHPHIGVVFYEDFEQIAVADIPGLIEDSHLNKGLGISFLKHIERCESLWYVLDYSTGSLTDQYKMLRVELEGYQKGLGDRASTIVINKIDLSGKSPEEEAHHLSSLFPNLPVFPVSAQQRIGLEPLLEHLREQYDK | not soluble |
| MDDNTATLTAIHQQQQSHNRFSNPLVCVGQLDHHSLLPEHSISSSLAPLTHNPYAFNYSIPLPPTDITTKLPKLELLSLDVKQEQDDNHLDTSSPTDSTGNGSTNGGKIQKPRRQRTHFTSHQLTELENWFSRNRYPDMACREEIAVWISLTEPRVRVWFKNRRAKWRKRERNYVIDNGQGTTKVTAQSLDPLGSLQNTFPQTLLQSSSSQLDDSAVTSSSFYGYGGAWQQNPYYSRNNQTTFNWQIKPQFQTIPMSPTTATSRFSTAANLAPLPTAQAAFSTSATSSNDKLKLMDGLSNSLSSSLGQPYQPCQYSGPL | not soluble |
| MEIHPGATIGRRFFIDHGMGIVIGETAEIGDDVTLYQGVTLGGTSWNKGKRHPTLENGVVVGAGAKVLGPFTVGAGAKIGSNAVVTKAVPAGATAVGIPGRIIVKSEDTEVEAKRKAMAEKIGFDAYGVSGDMPDPVARLEHHHHHH | not soluble |
| NDMIFSAIASMFPENGVPDDMKERYRELTEMSDPNALPPQCTPNIDGPNAKSVQREQSLHSFHTLFCRRCFKYDCFLHPFHATPNVYKRKNKEIKIEPEPCGTDCFLLLEGAKEYAMLHN | not soluble |
| MKDSLVLLGRVPAHPDSRCWFLAWNPAGTLLASCGGDRRIRIWGTEGDSWICKSVLSEGHQRTVRKVAWSPCGNYLASASFDATTCIWKKNQDDFECVTTLEGHENEVKSVAWAPSGNLLATCSRDKSVWVWEVDEEDEYECVSVLNSHTQDVKHVVWHPSQELLASASYDDTVKLYREEEDDWVCCATLEGHESTVWSLAFDPSGQRLASCSDDRTVRIWRQYLPGNEQGVACSGSDPSWKCICTLSGFHSRTIYDIAWCQLTGALATACGDDAIRVFQEDPNSDPQQPTFSLTAHLHQAHSQDVNCVAWNPKEPGLLASCSDDGEVAFWKYQRPEGLHHHHHH | soluble |
| MGLLTFRDVAIEFSREEWEHLDSDQKLLYGDVMLENYGNLVSLGLAVSKPDLITFLEQRKEPWNVKSAETVAIQPDIFSHDTQGLLRKKLIEASFQKVILDGYGSCGPQNLNLRKEWESEGKIILW | not soluble |
| GPGSMSAVESGSKVLRMKESDAQKLLAMRCHIGTRNQSSAMKKYIYGRTAEGSHIIDVHMMWEKLILAARVIAAVENPKDVCVCSSRLYGTRAIYKFSQHVGTSFHGGRFIPGTFTNQIQKKFVQPRVLVVTDPRTDHQAIREASLVNIPVIALCDTDAPLEYVDIAIPCNNRGIKSIGMMYWLLAREVLRLRGTIVRSVPWEEKVDLFFYRDPNEAAEEKAAAAAAAPAAEAEEGFGWVERNDDNAWEA | soluble |
